Experimental data: PubChem BioAssay AID1259331 (Drosophila RNAi Screening Center, 2017)

- Test: 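Genes whose knock-down changes cell survival under toxic zinc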 (primary screen)
- Cells: Drosophila S2R+ cells
- Reagents: long dsRNA against Drosophila genes
- Duration: 5 days (4 days knock-down, then 1 day zinc)
- Treatment: zinc chloride at 15 mM final level for 1 day
- Read-out: 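Luminescent ATP assay standing in for viability; Z score is the mean over three replicate plates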
- Direction: mean Z score: higher = more ATP than other wells, better survival under zinc; ATP luminescence: higher = more ATP, more viable cells
- Rule for the call: 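Hit when the absolute Z score is greater than 1.5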
- Calls: active = hit, ATP up or down; inactive = not a hit
Here is an unselected part of about 3,100 deposited reagents. In the full data, 126 (4.1%) are marked active. 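Calls are per reagent; zinc was so toxic that few knock-downs lowered ATP further, so most hits raise ATP.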 The raw values are shown without normalisation. Names joined by + are all predicted targets of the reagent. No sequences are given here. Not given: the amount of reagent.

| gene | DRSC id | mean Z score | ATP luminescence, replicate 1 | ATP luminescence, replicate 2 | activity call |
| --- | --- | --- | --- | --- | --- |
| CG2519 | DRSC12312 | -0.617 | 26839 | 28669 | inactive |
| SLC22A | DRSC11826 | -0.495 | 67234 | 51250 | inactive |
| SLC22A | DRSC11827 | -0.27 | 69670 | 53653 | inactive |
| PIG-N | DRSC06837 | 0.0929 | 82502 | 73906 | inactive |
| AstC-R2 | DRSC23467 | 0.0559 | 53910 | 53121 | inactive |
| AstC-R2 | DRSC39469 | -0.239 | 47475 | 45285 | inactive |
| AdoR | DRSC16556 | 3.25 | 1.30e5 | 1.09e5 | active |
| AdoR | DRSC28071 | 0.143 | 60975 | 57768 | inactive |
| PIG-Q | DRSC19138 | 0.117 | 68949 | 73683 | inactive |
| PIG-Q | DRSC39435 | 0.0866 | 52203 | 50035 | inactive |
| bib + lncRNA:CR13130 | DRSC24888 | 0.214 | 60683 | 58574 | inactive |
| snky | DRSC09838 | -0.139 | 74404 | 56654 | inactive |
| snky | DRSC39770 | -0.694 | 43177 | 49880 | inactive |
| COX7AL | DRSC25198 | -1.81 | 32136 | 34729 | active |
| GluRIID | DRSC16723 | -0.399 | 34034 | 54579 | inactive |
| GluRIID | DRSC24866 | -0.573 | 39079 | 53883 | inactive |
| Ir75c | DRSC10190 | -0.115 | 44565 | 38376 | inactive |
| Syx5 | DRSC03432 | -0.567 | 49366 | 47007 | inactive |
| bon + CG15923 | DRSC39557 | -0.541 | 54150 | 41462 | inactive |
| Ir67b | DRSC09876 | -0.298 | 69594 | 60872 | inactive |
| Ir47a | DRSC06215 | 0.29 | 81882 | 77285 | inactive |
| CG33116 | DRSC02045 | 2.12 | 86273 | 86119 | active |
| hoe2 | DRSC00459 | -0.674 | 37073 | 37947 | inactive |
| hoe2 | DRSC39471 | -0.266 | 48732 | 44702 | inactive |
| ETHR | DRSC15915 | 0.0229 | 35822 | 60933 | inactive |
| ETHR | DRSC29606 | 0.416 | 68332 | 67269 | inactive |
| phtf | DRSC05023 | -0.375 | 25344 | 29805 | inactive |
| phtf | DRSC28441 | 0.249 | 63774 | 66703 | inactive |
